In US11919880B2, “HCV protease inhibitors” (The Regents of the University of California, priority 2020, dated 2024):
For at least one compound, name, drawing or mass did not settle the structure.

Chains of the proteins cited; added tags and fusions are not shown. Residues count along the entry.
UniProt P17538, 19-263: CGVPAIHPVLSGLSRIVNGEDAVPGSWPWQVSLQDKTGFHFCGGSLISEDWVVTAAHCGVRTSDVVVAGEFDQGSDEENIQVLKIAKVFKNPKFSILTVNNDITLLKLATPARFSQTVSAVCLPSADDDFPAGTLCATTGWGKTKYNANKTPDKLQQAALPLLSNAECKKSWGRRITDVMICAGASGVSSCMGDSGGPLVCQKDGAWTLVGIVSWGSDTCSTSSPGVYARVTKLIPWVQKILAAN

Molecular target: human chymotrypsin (Homo sapiens, UniProt P17538)
Test: Counter-screening assay, chymotrypsin
Type: biochemical
Details: 13.08 and 14.68, 5.2 μM of 1, 12, and 22, respectively; 40 nM enzyme
Experimental: In addition, we tested these compounds for inhibition against the fungal serine protease, proteinase K that is structurally related to several mammalian serine proteases such as the proprotein convertase enzymes and furin^44.
Counter-screening assay. Counter-screening assays were performed with 40 nM of bovine trypsin (Sigma), pig pancreatic elastase (Sigma), human chymotrypsin and proteinase k and 60 μM of the appropriate fluorogenic substrates for trypsin, elastase, chymotrypsin, and proteinase K are Boc-Leu-Arg-Arg-AMC (trypsin), Me-Arg-Arg-Pro-Val-AMC (elastase) and Suc-Arg-Arg-Pro-Phe-AMC (chymotrypsin and proteinase K). Assays were performed in 50 mM HEPES pH 7.4, 15 mM NaCl, 0.01% Triton X-100 in black 96-well microplates (BD Falcon) at a final volume of 50 μL. The final concentration of DMSO in each well was 2.5%. Fluorescence was measured as outlined above.

Compound: CC(C)c1ccc(NC(=O)NC(Cc2c[nH]c3ccccc23)C(=O)NCCCN2CCCC[C@@H]2C)cc1 (stereo partly shown) [Compound 12]
- Decrease of chymotrypsin activity: did not decrease activity
